Measured values as given in publication PMC12431657, “Discovery and mechanistic insights of dibenzoylmethane as a broad spectrum inhibitor of coronavirus” (PLOS Pathogens, 2025).
Counter-ions that a name gives are not always drawn. Like-named read-outs stand apart in the source and are kept apart here. Hit rate of the full screen: of about 3,300 compounds, about 60 (2%) showed an effect of 50% or more. Some of the results follow. Peptide text beside a SMILES is read from it.

System: HCoV-OC43
Parameters: species or system RD; HTS, protection from HCoV-OC43 induced cell death, luminescent cell viability (CellCounting-Lite 2.0), inhibition rate
Conditions: 24 h post infection, 1 h compound pre-incubation, 10 µM, inhibitor

SMILES | OC43 Inhibition rate | OC43 Inhibition rate (OC43 Inhibition rate, 24 h)
COc1c(/C=C/C(=O)c2ccc(O)c(CC=C(C)C)c2)ccc(O)c1O [Licochalcone D] | 9.9% | –
CC1=C\[C@@H](O)CC(=O)Cc2nc(co2)C(=O)N2CCC=C2C(=O)O[C@H](C(C)C)[C@H](C)/C=C/C(=O)NC\C=C\1 [Virginiamycin M1] | 6.6% | –
CCCCCCCCCCCCCCCCCC(=O)OC [Methyl stearate] | -1.4% | –
CO[C@@H]1[C@H](OC(=O)/C=C/C=C/C=C/C=C/C(=O)O)CC[C@]2(CO2)[C@H]1[C@@]1(C)O[C@@H]1CC=C(C)C [Fumagillin] | 2.4% | –
COc1cc(CCC(=O)O)ccc1O [Dihydroferulic acid] | 0.2% | –
CC(=O)c1ccc[nH]1 [2-Acetylpyrrole] | 0% | –
Cc1cc(=O)c2c(O)c3c(O)cc(O)c4c5c(O)cc(O)c6c(O)c7c(=O)cc(C)cc7c(c65)c(c2c1)c34 [Protohypericin] | -0.2% | –
O=C(O)CNC(=O)[C@@H]1CCCN1 [L-Prolylglycine] (H-Pro-Gly-OH) | 1% | –
N=C(N)NCCC[C@H](N)C(=O)O [L-Arginine (hydrochloride)] | – | -1.4%
CC(=O)NCCCCCC(=O)O [6-Acetamidohexanoic acid] | 0.9% | –
CC(C)(O)[C@@H]1CC[C@](C)([C@H]2[C@@H](O)C[C@@]3(C)[C@@H]4C[C@H](O[C@@H]5O[C@H](CO)[C@@H](O)[C@H](O)[C@H]5O)[C@H]5C(C)(C)[C@@H](O[C@@H]6OC[C@@H](O)[C@H](O)[C@H]6O)CC[C@@]56C[C@@]46CC[C@]23C)O1 [Astragaloside IV] | -0.4% | –
C[C@@H]1C[C@H]2O[C@@]3(O[C@@H]2C(C)(C)O)[C@H](O)[C@@]2(C)[C@@H]4CC[C@H]5C(C)(C)[C@@H](O[C@@H]6OC[C@@H](O)[C@H](O)[C@H]6O)CC[C@@]56C[C@@]46CC[C@]2(C)[C@@H]13 [Cimigenoside] | 1.4% | –
COc1ccc2c3ccnc4ccc(=O)n(c2c1)c43 [9-Methoxycanthin-6-one] | 12% | –
COc1cc(/C=C/C(=O)NCC(O)c2ccc(O)cc2)ccc1O (stereo not drawn) [N-Feruloyloctopamine] | 0.5% | –
COc1nccc(N)n1 [2-O-Methylcytosine] | 0.2% | –
C[C@@]12C=Cc3occc3[C@H]1CC[C@@]13C[C@@H](CC[C@H]12)[C@@](O)(CO)C3 [Kahweol] | -1.2% | –
CC1=NCCc2c1[nH]c1cc(O)ccc21 [Harmalol (hydrochloride)] | 0.7% | –
Nc1c(O)cccc1C(=O)O [3-Hydroxyanthranilic acid] | 1.1% | –
COc1cc(/C=C/C(=O)OC[C@H]2O[C@H](O[C@]3(CO)O[C@H](CO)[C@@H](O)[C@@H]3O)[C@H](O)[C@@H](O)[C@@H]2O)cc(OC)c1O [Sibiricose A1] | 2.3% | –

SMILES | OC43 Inhibition rate | OC43 Inhibition rate (OC43 Inhibition rate, 24 h)
N#CCc1c[nH]c2ccccc12 [3-Indoleacetonitrile] | 0.8% | –
O=c1cc(-c2ccc(O)cc2)oc2c([C@@H]3O[C@H](CO)[C@@H](O)[C@H](O)[C@H]3O)c(O)c([C@@H]3O[C@H](CO)[C@@H](O)[C@H](O)[C@H]3O)c(O)c12 [Vicenin 2] | -0.6% | –
CC1=CC=C(C(C)C)CC1 [α-Terpinene] | -3.5% | –
OCC1=C[C@@H](O)[C@]2(O[C@@H]3O[C@H](CO)[C@@H](O)[C@H](O)[C@H]3O[C@@H]3O[C@H](CO)[C@@H](O)[C@H](O)[C@H]3O)C=CO[C@@H](O[C@@H]3O[C@H](CO)[C@@H](O)[C@H](O)[C@H]3O)[C@H]12 [Rehmannioside D] | 15.4% | –
COC(=O)c1c(C)cc(OC(=O)c2c(C)cc(O)c(C=O)c2O)c(C)c1O [Atranorin] | 11.8% | –
O=C(O)CC(CC(=O)O)C(=O)O [Tricarballylic acid] | 2.5% | –
C=C[C@H]1CN2CC[C@H]1C[C@H]2[C@H](O)c1ccnc2ccccc12 [Cinchonidine] | 1.2% | –
O=C(O)C1=CO[C@@H](O[C@@H]2O[C@H](CO)[C@@H](O)[C@H](O)[C@H]2O)[C@@H]2C(CO)=CC[C@H]12 [Geniposidic acid] | -0.1% | –
Nc1ccc(C(=O)O)cc1 [4-Aminobenzoic acid] | -0.3% | –
CC(C)c1ccc2c(c1)CC[C@H]1[C@](C)(CN)CCC[C@]21C [Leelamine (hydrochloride)] | -3% | –
CC(C)C[C@H](NC(=O)CN)C(=O)O [Glycyl-L-leucine] | -0.7% | –
COc1c(C)c2c(c(O)c1C/C=C(\C)CCC(=O)O)C(=O)OC2 [Mycophenolic acid] | 36.2% | –
COC(=O)[C@H]1O[C@@H](Oc2cc3oc(-c4ccccc4)cc(=O)c3c(O)c2O)[C@H](O)[C@@H](O)[C@@H]1O [Baicalin methyl ester] | -0.4% | –
O[C@H](c1ccccc1)[C@H](O)c1ccccc1 [(R,R)-(+)-Hydrobenzoin] | 0% | –
Cc1occc1SSc1ccoc1C [Bis(2-methyl-3-furyl)disulfide] | -1% | –
C[C@H](CC[C@@]1(O)O[C@H]2C[C@H]3[C@@H]4CC=C5C[C@@H](O[C@@H]6O[C@H](CO)[C@@H](O[C@@H]7O[C@@H](C)[C@H](O)[C@@H](O)[C@H]7O)[C@H](O)[C@H]6O[C@@H]6O[C@@H](C)[C@H](O)[C@@H](O)[C@H]6O)CC[C@]5(C)[C@H]4CC[C@]3(C)[C@H]2[C@@H]1C)CO[C@@H]1O[C@H](CO)[C@@H](O)[C@H](O)[C@H]1O [Protodioscin] | -6% | –
CCCCOC(=O)c1ccccc1C(=O)O [Monobutyl phthalate] | 0.6% | –
CC1=CC(=O)CC1 [3-Methyl-2-cyclopenten-1-one] | 1.5% | –
CC1(C)CC[C@]2(C(=O)O)CC[C@]3(C)C(=CC[C@@H]4[C@@]5(C)CC[C@@H](O)C(C)(C)[C@@H]5CC[C@]43C)[C@@H]2C1 [3-Epioleanolic acid] | -0.6% | –

In a second layout: entries from further up
SMILES	OC43 Inhibition rate	OC43 Inhibition rate (OC43 Inhibition rate, 24 h)
O=c1cc(-c2ccc(O)cc2)oc2c([C@@H]3O[C@H](CO)[C@@H](O)[C@H](O)[C@H]3O)c(O)c([C@@H]3O[C@H](CO)[C@@H](O)[C@H](O)[C@H]3O)c(O)c12 [Vicenin 2]	-0.6%	–
OCC1=C[C@@H](O)[C@]2(O[C@@H]3O[C@H](CO)[C@@H](O)[C@H](O)[C@H]3O[C@@H]3O[C@H](CO)[C@@H](O)[C@H](O)[C@H]3O)C=CO[C@@H](O[C@@H]3O[C@H](CO)[C@@H](O)[C@H](O)[C@H]3O)[C@H]12 [Rehmannioside D]	15.4%	–
O=C(O)CC(CC(=O)O)C(=O)O [Tricarballylic acid]	2.5%	–
O=C(O)C1=CO[C@@H](O[C@@H]2O[C@H](CO)[C@@H](O)[C@H](O)[C@H]2O)[C@@H]2C(CO)=CC[C@H]12 [Geniposidic acid]	-0.1%	–

(cont.)

SMILES | OC43 Inhibition rate | OC43 Inhibition rate (OC43 Inhibition rate, 24 h)
CCCCCCCCCCCCCCCCCCCCCC(=O)O[C@H]1CC[C@@]2(C)C(=CC[C@H]3[C@@H]4CC[C@H]([C@H](C)CCCC(C)C)[C@@]4(C)CC[C@@H]32)C1 [Cholesteryl behenate] | 0% | –
CC1(C)CC[C@]2(C(=O)O[C@@H]3O[C@H](CO)[C@@H](O)[C@H](O)[C@H]3O)CC[C@]3(C)C(=CC[C@@H]4[C@@]5(C)CC[C@H](O[C@@H]6O[C@H](CO)[C@@H](O)[C@H](O[C@@H]7O[C@H](CO)[C@@H](O)[C@H](O)[C@H]7O)[C@H]6O[C@@H]6O[C@H](CO)[C@@H](O)[C@H](O)[C@H]6O)[C@@](C)(CO)[C@@H]5CC[C@]43C)[C@@H]2C1 [Araloside VII] | 3.9% | –
Cc1ncc(CO)c(CN)c1O [Pyridoxylamine (dihydrochloride)] | – | -0.9%
C=C(C)[C@H](C)c1cc(/C=C/C(=O)c2ccc(O)cc2)c(OC)cc1O [Licochalcone E] | 55.6% | –
O=C(CO)[C@@H](O)[C@H](O)[C@H](O)COP(=O)(O)O [D-Fructose-6-phosphate (disodium) salt] | -9.1% | –
CCCC(=O)c1c(O)c(CC2=C(O)C(C)(C)C(=O)C(C(C)=O)=C2O)c(O)c(Cc2c(O)c(CC3=C(O)C(C)(C)C(=O)C(C(C)=O)=C3O)c(O)c(C(=O)CCC)c2O)c1O [Dryocrassin ABBA] | -1.8% | –
COc1cc(O)c2c(=O)cc(-c3ccc(O)c(OC)c3)oc2c1 [Velutin] | 34.1% | –
O=c1c(-c2ccc(O)cc2)coc2cc(O)ccc12 [Daidzein] | 0.2% | –
C[C@@H]1O[C@@H](Oc2cc(O)c3c(=O)c(O)c(-c4ccc(O)cc4)oc3c2)[C@H](O)[C@H](O)[C@H]1O [Kaempferol-7-O-rhamnoside] | 6.9% | –
CC1=C(/C=C/C(C)=C/C=C/C(C)=C/C=C/C=C(C)/C=C/C=C(\C)C=O)C(C)(C)CCC1 [β-Apo-8'-carotenal] | -0.2% | –
CC1(C)CC[C@]2(C(=O)O)CC[C@]3(C)C(=CC[C@@H]4[C@@]5(C)CC[C@H](O)C(C)(C)[C@@H]5CC[C@]43C)[C@@H]2C1 [Oleanolic Acid] | -1.6% | –
C/C(=C\CC[C@@H](C)[C@H]1CC[C@@]2(C)C3=C(CC[C@]12C)[C@@]1(C)CCC(=O)C(C)(C)[C@@H]1CC3=O)C(=O)O [Ganoderic acid DM] | 0.9% | –
C[n+]1cccc(C(N)=O)c1 [TRIA-662] | 1.7% | –
O=C(O)[C@H](O)[C@@H](O)[C@H](O[C@@H]1O[C@H](CO)[C@H](O)[C@H](O)[C@H]1O)[C@H](O)CO [Lactobionic acid] | 0.1% | –
CCCCCCCC/C=C\CCCCCCCC(=O)NCCO [Oleoylethanolamide] | 9.5% | –
C=C[C@H](O)CC(=NOS(=O)(=O)O)S[C@@H]1O[C@H](CO)[C@@H](O)[C@H](O)[C@H]1O [Progoitrin] | 0.7% | –
CC(C)C[C@H](O)C(=O)O [(S)-Leucic acid] | 1.1% | –
COc1ccc(/C=C/C(=O)c2ccc(OC)cc2)cc1 [4,4'-Dimethoxychalcone] | 10.7% | –
CC(C)=CC/C=C(\C)[C@H]1CC[C@]2(C)[C@@H]1[C@H](O)C[C@@H]1[C@@]3(C)CC[C@H](O[C@@H]4O[C@H](CO)[C@@H](O)[C@H](O)[C@H]4O[C@@H]4O[C@H](CO)[C@@H](O)[C@H](O)[C@H]4O)C(C)(C)[C@@H]3CC[C@]12C [Ginsenoside Rg5] | 7.5% | –
